Each number is a percent effect as filed. The record does not define 0% and 100%; most values in the screen are far below 50% and negative numbers occur (in some assays of this library far below -100). The compounds are a random part of those screened. A dash means the value is not listed here; it may have been measured.

Protein sequences, listed by entry. Tags and fused reporters are not part of them. Residues count along the entry.
UniProt P9WFT3, whole entry: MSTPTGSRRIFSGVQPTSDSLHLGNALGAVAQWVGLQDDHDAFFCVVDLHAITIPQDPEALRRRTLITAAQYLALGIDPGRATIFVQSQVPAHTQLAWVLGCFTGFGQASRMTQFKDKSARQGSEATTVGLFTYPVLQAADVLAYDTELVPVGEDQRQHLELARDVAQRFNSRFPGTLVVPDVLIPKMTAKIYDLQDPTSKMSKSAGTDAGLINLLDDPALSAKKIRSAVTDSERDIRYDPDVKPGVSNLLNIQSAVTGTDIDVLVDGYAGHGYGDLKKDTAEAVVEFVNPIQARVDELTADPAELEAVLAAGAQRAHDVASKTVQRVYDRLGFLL
UniProt I6X8D2, whole entry: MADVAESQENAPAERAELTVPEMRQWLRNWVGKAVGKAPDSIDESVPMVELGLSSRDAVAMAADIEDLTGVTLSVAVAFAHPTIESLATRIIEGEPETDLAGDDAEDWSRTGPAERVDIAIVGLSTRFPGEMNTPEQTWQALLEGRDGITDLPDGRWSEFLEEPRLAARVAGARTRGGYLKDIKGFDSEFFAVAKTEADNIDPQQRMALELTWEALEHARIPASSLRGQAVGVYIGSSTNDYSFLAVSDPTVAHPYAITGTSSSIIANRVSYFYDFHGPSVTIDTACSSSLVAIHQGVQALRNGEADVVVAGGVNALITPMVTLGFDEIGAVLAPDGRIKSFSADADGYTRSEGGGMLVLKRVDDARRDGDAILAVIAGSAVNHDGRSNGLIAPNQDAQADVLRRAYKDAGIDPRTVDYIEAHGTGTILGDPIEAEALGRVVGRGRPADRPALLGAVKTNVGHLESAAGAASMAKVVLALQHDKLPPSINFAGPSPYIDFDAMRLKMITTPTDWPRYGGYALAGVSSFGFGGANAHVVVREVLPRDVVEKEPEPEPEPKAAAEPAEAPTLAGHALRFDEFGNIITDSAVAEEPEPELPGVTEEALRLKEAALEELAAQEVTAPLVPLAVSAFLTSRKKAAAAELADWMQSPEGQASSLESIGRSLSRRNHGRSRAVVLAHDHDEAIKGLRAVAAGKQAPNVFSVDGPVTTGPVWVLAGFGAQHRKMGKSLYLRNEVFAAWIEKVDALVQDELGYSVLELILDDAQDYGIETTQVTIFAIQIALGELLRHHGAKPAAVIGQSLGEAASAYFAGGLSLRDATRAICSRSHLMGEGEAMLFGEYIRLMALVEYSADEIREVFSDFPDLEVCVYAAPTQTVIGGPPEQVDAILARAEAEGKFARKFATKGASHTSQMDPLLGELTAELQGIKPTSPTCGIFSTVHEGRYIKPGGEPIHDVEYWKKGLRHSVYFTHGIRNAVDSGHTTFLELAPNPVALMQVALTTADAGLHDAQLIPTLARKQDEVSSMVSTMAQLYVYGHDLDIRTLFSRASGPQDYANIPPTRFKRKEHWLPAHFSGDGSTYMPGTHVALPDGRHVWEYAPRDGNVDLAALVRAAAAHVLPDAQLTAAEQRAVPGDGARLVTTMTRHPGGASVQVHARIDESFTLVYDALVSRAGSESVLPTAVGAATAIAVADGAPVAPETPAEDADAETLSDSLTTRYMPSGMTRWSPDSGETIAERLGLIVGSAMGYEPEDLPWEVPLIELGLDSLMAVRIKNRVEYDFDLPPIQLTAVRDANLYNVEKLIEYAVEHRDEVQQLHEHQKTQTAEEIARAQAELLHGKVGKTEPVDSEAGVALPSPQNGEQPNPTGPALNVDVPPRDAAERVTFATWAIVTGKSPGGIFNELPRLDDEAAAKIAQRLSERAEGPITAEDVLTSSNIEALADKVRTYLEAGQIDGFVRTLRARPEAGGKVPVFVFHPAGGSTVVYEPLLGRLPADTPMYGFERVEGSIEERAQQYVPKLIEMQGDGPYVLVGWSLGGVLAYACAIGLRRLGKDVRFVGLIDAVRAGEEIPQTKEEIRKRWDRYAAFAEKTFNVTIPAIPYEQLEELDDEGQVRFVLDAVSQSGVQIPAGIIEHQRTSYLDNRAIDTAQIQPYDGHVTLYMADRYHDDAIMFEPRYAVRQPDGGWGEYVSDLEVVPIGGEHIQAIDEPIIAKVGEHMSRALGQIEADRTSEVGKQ
UniProt A4I591, 1-473: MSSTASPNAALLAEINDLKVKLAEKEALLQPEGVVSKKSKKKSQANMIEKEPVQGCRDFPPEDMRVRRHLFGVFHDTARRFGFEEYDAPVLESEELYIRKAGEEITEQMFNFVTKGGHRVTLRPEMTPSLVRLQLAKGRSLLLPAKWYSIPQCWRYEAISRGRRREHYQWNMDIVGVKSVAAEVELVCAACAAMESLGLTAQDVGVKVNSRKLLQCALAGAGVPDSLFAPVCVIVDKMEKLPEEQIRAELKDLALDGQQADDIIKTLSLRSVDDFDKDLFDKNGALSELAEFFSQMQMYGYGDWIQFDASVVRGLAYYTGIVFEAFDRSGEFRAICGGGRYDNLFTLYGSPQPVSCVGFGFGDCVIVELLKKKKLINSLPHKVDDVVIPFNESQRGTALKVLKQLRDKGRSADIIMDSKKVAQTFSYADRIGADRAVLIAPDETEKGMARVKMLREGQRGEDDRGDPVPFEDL
UniProt Q8IDJ8, 1-583: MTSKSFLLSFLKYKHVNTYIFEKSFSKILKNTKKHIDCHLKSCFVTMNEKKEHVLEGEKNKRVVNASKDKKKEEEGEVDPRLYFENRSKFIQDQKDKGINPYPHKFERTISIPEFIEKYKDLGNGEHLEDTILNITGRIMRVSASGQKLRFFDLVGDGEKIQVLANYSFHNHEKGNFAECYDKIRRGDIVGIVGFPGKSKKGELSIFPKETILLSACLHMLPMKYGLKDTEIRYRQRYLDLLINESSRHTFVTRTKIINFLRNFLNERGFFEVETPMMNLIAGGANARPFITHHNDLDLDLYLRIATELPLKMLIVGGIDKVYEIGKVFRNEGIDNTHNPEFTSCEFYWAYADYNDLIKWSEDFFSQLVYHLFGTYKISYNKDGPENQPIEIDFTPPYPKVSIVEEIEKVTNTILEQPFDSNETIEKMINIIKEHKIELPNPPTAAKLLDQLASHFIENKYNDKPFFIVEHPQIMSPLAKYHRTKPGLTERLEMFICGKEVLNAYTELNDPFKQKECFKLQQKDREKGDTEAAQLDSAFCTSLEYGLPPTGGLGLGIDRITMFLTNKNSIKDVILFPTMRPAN

A: 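Tryptophan-tRNA ligase, Mycobacterium tuberculosis (UniProt P9WFT3). Enzyme assay of tryptophanyl-tRNA synthetase; the read-out is not stated. Tested at 10 µM. Direction is not recorded; retested compounds ran higher, which suggests that high means inhibition. Size under these conditions: about 65,000 compounds, about 64 of them at 50% or above in at least one test.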
B: 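Enzyme assay of the thioesterase domain of polyketide synthase 13; the read-out is not stated. Target: Polyketide synthase Pks13, Mycobacterium tuberculosis (UniProt I6X8D2). Compounds at 30 µM. Higher reads as stronger inhibition (inferred from which compounds were picked for retests). Of about 67,000 compounds tested this way, about 300 (0.46%) reached 50% or more in at least one test.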
C: 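Histidine-tRNA ligase, Leishmania infantum (UniProt A4I591). Enzyme assay of histidyl-tRNA synthetase; the read-out is not stated. Compounds at 30 µM. Direction is inferred from retests: higher values go with stronger inhibition. The assay is labelled LdHisRS but filed under L. infantum. Size under these conditions: about 69,000 compounds, about 410 of them at 50% or above in at least one test.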
D: 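Enzyme assay of the cytosolic lysyl-tRNA synthetase in 384-well plates, read by luminescence. Target: Lysine-tRNA ligase, Plasmodium falciparum 3D7 (UniProt Q8IDJ8). Tested at 30 µM. Direction is inferred from only a few compounds that gave an IC50; most scored high, so higher reads as stronger inhibition. Size under these conditions: about 69,000 compounds, about 49 of them at 50% or above in at least one test.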

| SMILES | A | B | C | D |
|---|---|---|---|---|
| `CC(=O)c1ccc(CNC(=O)c2c(C)cc(C)cc2C)nc1C` | -2.279 | -4.289 | 4.505 | 5.231 |
| `COc1ccc(-c2nc(CN3CCOCS3(=O)=O)c(C)o2)cc1` | 1.421 | -3.765 | 14.56 | -1.313 |
| `Cc1nnc(NC(=O)CN2CCCC2c2noc(C3CC3)n2)s1` (stereo not shown) | 1.488 | 5.021 | 12.9 | 0.1574 |
| `CCS(=O)(=O)N1CCOC2(CCCN(c3ccccn3)C2)C1` (stereo not shown) | -0.4882 | 17.01 | 8.571 | 0.6554 |
| `COc1ccc(CN2C[C@@H]3OCC(=O)N(CC(N)=O)[C@@H]3C2)cc1` | 0.6865 | - | 13.51 | 7.455 |
| `Cc1cc(NC(=O)C(C)N2CCN(c3nc(C)cs3)CC2)on1` (stereo not shown) | -1.484 | 2.167 | 5.66 | -0.5503 |
| `CCCNC(=O)c1ccc(S(=O)(=O)NC2(COC)CCCC2)cc1` | -0.805 | -22.75 | 12.82 | 0.935 |
| `CC(=O)NCCCNCc1cc(F)ccc1Br` | 4.263 | -8.113 | -3.448 | -6.942 |
| `COc1ccccc1C(=O)N1CCC(O)(c2cccc(C)c2C)CC1` | 2.784 | 13.33 | 0 | -3.142 |
| `CCN(C)c1ncnc2c1CCN(C(=O)c1ccccn1)CC2` | -3.293 | -16.09 | 15.07 | 2.696 |
| `COc1ccccc1OCCCN(C)c1cc(C)nc(N)n1` | -7.948 | - | 5.376 | 0.604 |
| `Cc1ccc(-c2ncc(C(=O)N3CCC[C@H](N)C3)c(O)n2)cc1` | 2.517 | -5.412 | 15.38 | 0.7202 |
| `Cc1noc(C)c1CNC(=O)N1CCC(NS(C)(=O)=O)CC1` | 1.481 | -14 | 14.52 | 6.43 |
| `CCCc1nnc(N2CCN(c3ccccc3F)CC2)o1` | 2.065 | -10.3 | -7.447 | -1.736 |
| `CC(C)(C)NC(=O)Cn1nc(C2CC2)cc(C(F)(F)F)c1=O` | -2.744 | -30.75 | 12.82 | 0.1374 |
| `CS(=O)(=O)c1ccc(CN2CCCC3(C2)C(=O)Nc2ccccc23)cc1` (stereo not shown) | 3.907 | -8.755 | 19.17 | 3.129 |
| `Cc1cccc(-c2ccc(C(=O)NCC(C)(C)C(N)=O)c(=O)[nH]2)c1` | -1.643 | 57.45 | 7.143 | 0.9874 |
| `COCC(=O)NC[C@H]1CC[C@H](c2nnc(-c3cccnc3)o2)CC1` | -5.855 | 5.067 | -11.35 | 0.03051 |
| `CC1CCCN(CCCNC(=O)c2ccc(N(C)S(C)(=O)=O)cc2Cl)C1` (stereo not shown) | 0.9684 | -14.27 | 8.235 | 1.436 |
| `O=c1[nH]c2c(c(=O)n1C1CCCCC1)CCC2Nc1ccccc1Cl` (stereo not shown) | 13.07 | -36.62 | -7.767 | 61.47 |
| `COc1ccc(CN2CCCN(C(=O)C(C)n3ccnc3)CC2)cc1` (stereo not shown) | -5.712 | -13.56 | 30.36 | -0.582 |
| `Cc1cc(C)n(CC2CN(Cc3nnsc3Cl)CCO2)n1` (stereo not shown) | 2.673 | -5.177 | 5.6 | 9.981 |
| `CCOc1ncccc1NC(=O)c1ccc(C)s1` | 6.875 | -10.55 | 23.46 | 4.448 |
| `CCC(=O)Nc1cccc(OCC(=O)N(C)Cc2nc(C)c[nH]2)c1` | -1.308 | -5.256 | 11.83 | 2.371 |
| `C[C@H]1CN(C(=O)c2cscn2)C[C@@]12CCN(c1ccsc1)C2=O` | -4.848 | -8.84 | 14 | 1.411 |
| `Cc1nc(NC2CCCC2)cc(C2CCN2c2ncccn2)n1` (stereo not shown) | -2.044 | 5.408 | 4.286 | 0.6518 |
| `Cc1cnc(CN(C)C2CCN(Cc3nccn3C)C2)o1` (stereo not shown) | -0.4172 | -15.23 | 6.897 | 0.02012 |
| `Cc1nc(CN2CCN(C(=O)COCc3ccccc3)CC2)no1` | -1.676 | -14.31 | 11.32 | -0.6113 |
| `CC(C)c1ncc(Cl)c(C(=O)N2CCN(C3CC3)CC2)n1` | 1.135 | -30.46 | 18.99 | 4.275 |
| `O=C(c1cc(F)cc2[nH]cnc12)N1CCCCC1Cn1cccn1` (stereo not shown) | 3.609 | -7.007 | 9.91 | 5.327 |
| `Cc1nc(N2CCCN(c3ncccn3)CC2)c2cnn(C)c2n1` | -0.161 | -18.29 | 18.03 | 5.65 |
| `NC(=O)N1Cc2nccn2CC(Cn2ncccc2=O)C1` (stereo not shown) | 5.053 | -22.29 | 8.333 | 3.703 |
| `O=C(NCc1c[nH]c(=O)[nH]c1=O)C1CCOc2ccccc2C1` (stereo not shown) | 0.8653 | -21.89 | 12.99 | 2.486 |
| `Cc1cnn(CC2CCCN2C(=O)c2csc(-c3nnc[nH]3)n2)c1` (stereo not shown) | -6.144 | -39.28 | 13.27 | 1.273 |
| `CC(C)CC(=O)N1CCc2ccc(S(=O)(=O)N3CCN(C)CC3)cc2C1` | 2.147 | -6.374 | 9.524 | 0.9836 |
| `O=C(NCCc1ccc(F)cc1)NC1CCCc2c1cnn2CCO` (stereo not shown) | 1.955 | -5.979 | 9.821 | 4.369 |
| `O=C(NCC1CC1)[C@H]1C[C@@H]2CN(C(=O)NCc3ccccc3)C[C@H]1O2` | -1.744 | - | 16.36 | 7.265 |
| `N#Cc1c(N2CCCN(C3CCOCC3)CC2)nc2ccccn12` | -6.638 | 95.78 | 6.838 | 0.5788 |
| `CN1CC2(CCN(C(=O)c3ccc(-n4cnnc4)cc3Cl)CC2)OC1=O` | 2.094 | 3.311 | 9.735 | 1.825 |
| `Cc1ccc(CN2C[C@@H]3CCCO[C@@H]3[C@H](NS(C)(=O)=O)C2)o1` | 6.184 | -13.32 | 2.857 | 3.054 |
| `Cc1cc(CNC(=O)c2ccc(C(C)N3CCCCC3)o2)[nH]n1` (stereo not shown) | 4.173 | -12.87 | 35.62 | -2.447 |
| `O=C(C1SCCc2sccc21)N1CC(O)C1` (stereo not shown) | -1.652 | -16.09 | 11.61 | 4.11 |
| `CCn1cc(N2Cc3nc(N4CCC(O)CC4)ncc3C2=O)cn1` | 0.3886 | 2.573 | 10.34 | -0.5308 |
| `CC(C)c1nnc2ccc(N3CCC(C(=O)NC4CC4)CC3)nn12` | -0.6303 | -13.47 | 13.16 | 5.795 |
| `Cc1ccc(-n2nnc(C(=O)NCC(F)(F)F)c2C2CC2)cc1` | -7.997 | -26.58 | 8.036 | 1.101 |

For reference, 3 entries once more:

{"smiles": "Cc1cc(C)n(CC2CN(Cc3nnsc3Cl)CCO2)n1", "stereo": "stereo not shown", "A": 2.673, "B": -5.177, "C": 5.6, "D": 9.981}
{"smiles": "CCCc1nnc(N2CCN(c3ccccc3F)CC2)o1", "A": 2.065, "B": -10.3, "C": -7.447, "D": -1.736}
{"smiles": "Cc1ccc(-c2ncc(C(=O)N3CCC[C@H](N)C3)c(O)n2)cc1", "A": 2.517, "B": -5.412, "C": 15.38, "D": 0.7202}

Source: ChEMBL document CHEMBL3988442, “University of Dundee, Small-Polar-MMV Screening Library” (2021).